Values quoted from earlier work, collected in patent US20080032918A1, “Mast cell-derived renin” (Cornell Research Foundation, Inc., priority 2003, published 2008).
At least one structure is not confirmed: it was looked up by name or label, or the drawing left a doubt.

Experiments:
human lung mast cells = conditions: cited from earlier work
[1] = test system: human lung and tonsillar cells; conditions: cited from earlier work

SMILES | inhibition of human lung mast cell release (histamine) (human lung mast cells) | histamine release [1]
C=CC[C@@H]1/C=C(\C)C[C@H](C)C[C@H](OC)[C@H]2O[C@@](O)(C(=O)C(=O)N3CCCC[C@H]3C(=O)O[C@H](/C(C)=C/[C@@H]3CC[C@@H](O)[C@H](OC)C3)[C@H](C)[C@@H](O)CC1=O)[C@H](C)C[C@@H]2OC [FK-506] | inhibited | 
COC(=O)C1=C(C)NC(C)=C(C(=O)OCCN(C)Cc2ccccc2)C1c1cccc([N+](=O)[O-])c1 (stereo not drawn) [nicardipine] |  | inhibit histamine release
COC(=O)C1=C(C)NC(C)=C(C(=O)OC)C1c1ccccc1[N+](=O)[O-] [nifedipine] |  | inhibit histamine release
